## Screening data, single-dose tests

Amino acid sequences for entries named in this document (tags omitted). Residues count along the entry.
UniProt Q4DA54, 1-478: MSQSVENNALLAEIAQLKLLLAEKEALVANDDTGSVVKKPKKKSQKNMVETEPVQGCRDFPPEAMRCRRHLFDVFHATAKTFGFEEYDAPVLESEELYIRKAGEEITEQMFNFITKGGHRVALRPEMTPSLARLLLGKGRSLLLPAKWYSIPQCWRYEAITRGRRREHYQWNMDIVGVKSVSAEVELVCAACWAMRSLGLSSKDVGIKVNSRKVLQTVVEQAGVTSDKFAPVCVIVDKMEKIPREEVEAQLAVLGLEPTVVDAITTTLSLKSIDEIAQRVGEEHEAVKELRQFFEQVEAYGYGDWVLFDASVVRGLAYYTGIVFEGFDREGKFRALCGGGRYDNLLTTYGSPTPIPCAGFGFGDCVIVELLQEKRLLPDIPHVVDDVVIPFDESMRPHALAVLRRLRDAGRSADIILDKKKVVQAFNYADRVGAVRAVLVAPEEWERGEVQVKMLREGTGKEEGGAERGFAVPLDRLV
UniProt P9WNZ1, whole entry: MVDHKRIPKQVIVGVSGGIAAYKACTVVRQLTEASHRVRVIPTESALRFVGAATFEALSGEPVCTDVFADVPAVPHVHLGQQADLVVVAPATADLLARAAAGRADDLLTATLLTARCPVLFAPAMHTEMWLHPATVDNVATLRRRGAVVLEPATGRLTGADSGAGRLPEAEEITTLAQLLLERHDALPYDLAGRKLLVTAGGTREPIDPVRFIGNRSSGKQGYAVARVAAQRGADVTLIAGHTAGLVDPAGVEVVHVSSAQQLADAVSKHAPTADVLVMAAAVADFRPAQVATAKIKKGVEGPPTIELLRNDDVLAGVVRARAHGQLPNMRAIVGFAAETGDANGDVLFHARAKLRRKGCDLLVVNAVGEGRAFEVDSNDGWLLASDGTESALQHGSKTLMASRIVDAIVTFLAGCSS

Data taken from ChEMBL document CHEMBL3988442, “University of Dundee, Small-Polar-MMV Screening Library” (2021).

A: 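Histidine-tRNA ligase, Trypanosoma cruzi CL Brener (UniProt Q4DA54). Enzyme assay of histidyl-tRNA synthetase; the read-out is not stated. Tested at 30 µM. Higher reads as stronger inhibition (inferred: compounds with an IC50 in retests scored well above the rest). Size under these conditions: about 69,000 compounds, about 31 of them at 50% or above in at least one test.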
B: 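Enzyme assay of CoaBC with a phosphate dye (Biomol Green) read at 650 nm. Target: Coenzyme A biosynthesis protein CoaBC, Mycobacterium tuberculosis (UniProt P9WNZ1). Concentration: 30 µM. Direction is inferred from only a few compounds that gave an IC50; most scored high, so higher reads as stronger inhibition. Most strong results did not repeat in a second test. About 67,000 compounds were tested under these conditions; 0.06% (about 40) showed 50% or more at least once.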

Values are the deposited “Percent Effect”, in %. The record does not define 0% and 100%; most values in the screen are far below 50% and negative numbers occur (in some assays of this library far below -100). Compounds were drawn at random from those tested, without regard to their results. A dash means the value is not listed here; it may have been measured.

SMILES	A	B
CC1CN(C(=O)NCCn2ccnc2)CCO1 (centres unmarked)	2.809%	0.6036%
CC(CNC(=O)CCCc1ccccn1)c1ccsc1 (centres unmarked)	7.229%	-0.9901%
CC(=O)N1CCOC(c2ccnc(N(C)C)n2)C1 (centres unmarked)	4.286%	-0.9132%
CSc1nccc(N2CCCC(c3nccn3C(C)C)C2)n1 (centres unmarked)	-1.117%	1.285%
COCC(=O)N1C[C@@H](C)[C@](O)(C(C)C)C1	5.051%	6.061%
CCN1CCOCC2(CCCN(C(=O)c3ccncc3F)C2)C1 (centres unmarked)	0.4808%	9.882%
CCn1c(=O)c2cc(S(N)(=O)=O)ccc2n(CC)c1=O	8.911%	-1.687%
Cc1nn(C)c(C)c1C1CCCN1CC(=O)Nc1cccnc1 (centres unmarked)	3.779%	8.964%
CCC1CN(CC(=O)NCc2ccco2)CCO1 (centres unmarked)	2.299%	0.861%
Cc1ccsc1[C@@H]1CCN(C(=O)CCc2nc3ccccc3[nH]2)C[C@H]1O	3.96%	2.447%
Cc1ccc(CNC2CCN(CCc3ccncc3)CC2)cc1C	-3.743%	-24.22%
COc1ccc(CN2C[C@@H]3CN(S(=O)(=O)C4CC4)C[C@@H]3C2=O)cc1	-0.9709%	2.545%
O=C(CNc1ccc(OC2CCOC2)cc1)NCc1ccco1 (centres unmarked)	9.453%	8.908%
N#CCCCS(=O)(=O)NC(=O)c1cccc(Cl)c1F	5.419%	-0.9677%
CC(C)(CNC1CCCN(Cc2ccccn2)C1)CN1CCOCC1 (centres unmarked)	2.051%	12.4%
Cc1nc(C)n(CC(C)C(=O)N2CCCN(C3CCCC3)CC2)n1 (centres unmarked)	4.04%	-1.279%
O=C(NCCCN1CCOCC1)c1ccn(-c2ccc3ccccn23)n1	9.29%	0.6435%
Cc1cc(C(=O)N2CCCC(n3nc(C)cc3C)C2)on1 (centres unmarked)	-1.681%	9.287%
COc1ccc(-n2cccn2)c(CN2CCOCC(CN(C)C)C2)c1 (centres unmarked)	9.524%	5.037%
Cc1cnc(CN(C)C2CCN(CCn3cc(C#N)cn3)C2)o1 (centres unmarked)	4.511%	2.254%
Cc1noc(C2CCN(C(=O)c3c(C)noc3C)CC2)n1	-11.02%	-10.13%
CN(C)C(=O)Cc1ccc(-c2cccc3c2CCNC3)cc1	7.921%	0.3645%
Cc1ccccc1OCC1CCCN(c2cc(N)nc(N)n2)C1 (centres unmarked)	20.44%	-65.05%
COCCNC(=O)C[C@@H]1COC[C@H]2CN(Cc3cccnc3)C[C@@H]12	5.028%	3.03%
COC1CCN(C(=O)Cn2cccc(C(F)(F)F)c2=O)C1 (centres unmarked)	3.784%	4.701%
Cc1ccnn1CCC(=O)N1CCCC[C@@]2(C)[C@@H]1CCC(=O)N2C	10.34%	3.641%
c1ccc(CN2C[C@@H]3COC[C@]3(COCC3CCOCC3)C2)nc1	4.301%	9.514%
CCN1CC(CN(C)Cc2nc(-c3ccoc3)oc2C)CC1=O (centres unmarked)	8%	4.132%
O=C1C[C@H]2[C@H](CCN2Cc2ccccn2)N1CC1CC1	4.511%	0.7255%
CC(Cn1cccn1)NC(=O)CCc1ccc(S(N)(=O)=O)cc1 (centres unmarked)	-4.151%	10%
CCNC(=O)N1CC[C@@H](CC(=O)O)[C@@H](CC2=NCCc3ccccc32)C1	1.98%	-5.192%
CC(NCC(=O)Nc1ccc(N2CCCCCC2)cc1)c1cccs1 (centres unmarked)	8.458%	3.137%
CC(=O)N1CCC(Cc2nccnc2-c2c(C)n[nH]c2C)C1 (centres unmarked)	-2.128%	-2.941%
Cc1nc(C)n(CC2CCCN(Cc3nnc(-c4ccco4)o3)C2)n1 (centres unmarked)	4.348%	-10.12%
O=S(=O)(C1CC1)N1C[C@@H]2CN(Cc3ccoc3)CCO[C@@H]2C1	2.454%	-
COCC(O)CN(C)c1ccnc2cc(Br)ccc12 (centres unmarked)	5.941%	5.097%
CCc1c(C)sc2nc3n(CCN4CCOCC4)nc(SC)n3c(=O)c12	2.484%	-3.671%
COc1ccnc(N2CCC3(CC2)[C@H](O)C[C@@H]3OCCN(C)C)n1	-0.8403%	2.376%
Cc1cccc(-c2noc(CN3CCC(c4ccn[nH]4)CC3)n2)c1	5.155%	3.912%
Cc1nccn1CCC1CCN(C2CCC3(CCNCC3)CC2)CC1	12.44%	4.691%
Cn1c(=O)[nH]c(=O)c2c1nc1n2CC(c2ccc(Cl)cc2)O1 (centres unmarked)	3.093%	2.013%

The last 4 entries again:

SMILES	A	B
COc1ccnc(N2CCC3(CC2)[C@H](O)C[C@@H]3OCCN(C)C)n1	-0.8403%	2.376%
Cc1cccc(-c2noc(CN3CCC(c4ccn[nH]4)CC3)n2)c1	5.155%	3.912%
Cc1nccn1CCC1CCN(C2CCC3(CCNCC3)CC2)CC1	12.44%	4.691%
Cn1c(=O)[nH]c(=O)c2c1nc1n2CC(c2ccc(Cl)cc2)O1 (centres unmarked)	3.093%	2.013%